No constants are given. Whether binding was seen depends on the method and setting. In cells and extracts the contact can be indirect. Some binding calls cover weakened binding; strength is not graded here.
Legend:
[1] = target: T1, DRAM1 (DNA damage-regulated autophagy modulator 1) (human (endogenous in HeLa)) (UniProt Q8N682); assay: co-IP; HeLa cell lysates (untransfected or vector, or DRAM1-pcDNA4 for 48 h; also after serum-free medium for 4 h) incubated with 2 ug antibody (anti-BAX or anti-DRAM1) overnight at 4 °C, IgG/IgA beads, washed three times in 1x PBS pH 7.4, immunoblot
T1 sequence: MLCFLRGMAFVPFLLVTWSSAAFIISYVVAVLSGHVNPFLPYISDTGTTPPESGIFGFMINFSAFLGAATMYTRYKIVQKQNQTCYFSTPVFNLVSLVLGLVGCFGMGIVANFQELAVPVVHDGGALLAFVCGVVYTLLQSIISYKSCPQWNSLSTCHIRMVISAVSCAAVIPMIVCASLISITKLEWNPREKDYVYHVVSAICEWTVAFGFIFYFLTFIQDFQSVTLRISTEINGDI

Chains of the proteins cited; added tags and fusions are not shown.
UniProt Q07812: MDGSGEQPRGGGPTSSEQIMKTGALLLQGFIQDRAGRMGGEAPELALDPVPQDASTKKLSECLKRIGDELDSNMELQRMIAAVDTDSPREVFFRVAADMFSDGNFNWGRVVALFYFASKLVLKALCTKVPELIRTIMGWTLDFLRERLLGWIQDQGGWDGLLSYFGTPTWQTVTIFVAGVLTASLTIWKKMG

[2] = target: T2, DRAM1 expressed from DRAM1-pcDNA4 (UniProt Q8N682); assay: as above
T2 sequence: T1 sequence

- binding [2]: binds
Substance: BAX (from UniProt Q07812 1-192)
- binding [1]: binds

— article PMC4669745
